Test system: CA19-9 modified proteins
Assay: CA19-9 IP/MS (iTRAQ) of organoid conditioned media after Dox treatment
Design: species or system mouse
Conditions: CA19-9 IP/MS relative abundance; for 17 0H NS19 / 17 8H 5B1 / 17 8H NS19: A217 (genetic negative) organoid conditioned media; for 17 0H NS19 / 20 0H 5B1: 0H (before treatment); for 17 0H NS19 / 17 8H NS19: IP with NS19-9; for 17 0H NS19: reference channel = 1; for 17 8H 5B1 / 17 8H NS19: after 8 hours; for 17 8H 5B1 / 20 0H 5B1: IP with 5B1; for 20 0H 5B1: A220 (C;R^LSL;F) organoid conditioned media

B1: Q9Z2K1 (protein, UniProt Q9Z2K1 1-469, looked up)
chain: MATCSRQFTSSSSMKGSCGIGGGSSRMSSILAGGSCRAPSTCGGMSVTSSRFSSGGVCGIGGGYGGSFSSSSFGGGLGSGFGGRFDGFGGGFGAGLGGGLGGGIGDGLLVGSEKVTMQNLNDRLATYLDKVRALEEANRDLEVKIRDWYQRQRPTEIKDYSPYFKTIEDLKSKIIIATQENAQFTLQIDNARLAADDFRTKYENELFLRQSVEGDINGLRKVLDELTLSRADLEMQIENLREELAFLKKNHEEEMLALRGQTGGDVNVEMDAAPGVDLSRILNEMRDQYEQMAEKNRRDVEAWFLRKTEELNKEVASNSDLIQSNRSEVAELRRVFQGLEIELQSQLSMKASLENSLEETKGRYCMQLSQIQGLISSVEEQLAQLRCEMEQQSQEYNILLDVKTRLEQEIATYRRLLDGENIHSSSQHSSGQSYSSREVFSSSSRQPRSILKEQGSTSFSQSQSQSSRD
modifications: full-length
  17 0H NS19: 1
  17 8H 5B1: 0.566
  17 8H NS19: 1.553
  20 0H 5B1: 1.182

B2: P19001 (protein, UniProt P19001 1-403, looked up)
chain: MTSYSYRQTSAMSSFGGTGGGSVRIGSGGVFRAPSIHGGSGGRGVSVSSTRFVTSSSGSYGGVRGGSFSGTLAVSDGLLSGNEKITMQNLNDRLASYLDKVRALEQANGELEVKIRDWYQKQGPGPSRDYNHYFKTIEDLRDKILGATIDNSKIVLQIDNARLAADDFRTKFETEHALRLSVEADINGLRRVLDELTLARTDLEMQIESLKEELAYLKKNHEEEITALRSQVGGQVSVEVDSTPGVDLAKILSEMRSQYEIMAEKNRKDAEATYLARIEELNTQVAVHSEQIQISKTEVTDLRRTLQGLEIELQSQLSMKAALEGTLAETEARYGVQLSQIQSVISGFEAQLSDVRADIERQNQEYKQLMDIKSRLEQEIATYRSLLEGQEAHYNNLPTPKAI
modifications: full-length
  17 0H NS19: 1
  17 8H 5B1: 1.015
  17 8H NS19: 0.774
  20 0H 5B1: 0.775

B3: Q07797 (protein, UniProt Q07797 1-577, looked up)
chain: MALLWLLSVFLLVPGTQGTEDGDMRLVNGASANEGRVEIFYRGRWGTVCDNLWNLLDAHVVCRALGYENATQALGRAAFGPGKGPIMLDEVECTGTESSLASCRSLGWMVSRCGHEKDAGVVCSNDTTGLHILDLSGELSDALGQIFDSQQGCDLFIQVTGQGYEDLSLCAHTLILRTNPEAQALWQVVGSSVIMRVDAECMPVVRDFLRYFYSRRIEVSMSSVKCLHKLASAYGATELQDYCGRLFATLLPQDPTFHTPLDLYAYARATGDSMLEDLCVQFLAWNFEPLTQSESWSAVPTTLIQALLPKSELAVSSELDLLKAVDQWSTETIASHEDIERLVEQVRFPMMLPQELFELQFNLSLYQDHQALFQRKTMQALEFHTVPVEVLAKYKGLNLTEDTYKPRLYTSSTWSSLVMASTWRAQRYEYNRYNQLYTYGYGSVARYNSYQSFQTPQHPSFLFKDKQISWSATYLPTMQSCWNYGFSCTSNELPVLGLTTSSYSNPTIGYENRVLILCGGYSVVDVTSFEGSKAPIPTALDTNSSKTPSLFPCASGAFSSFRVVIRPFYLTNSTDMV
modifications: full-length
  17 0H NS19: 1
  17 8H 5B1: 4.679
  17 8H NS19: 0.777
  20 0H 5B1: 4.024

B4: Q9QWL7 (protein, UniProt Q9QWL7 1-433, looked up)
chain: MTTTIRQFTSSSSIKGSSGLGGGSSRTSCRLSGSLGAGSCRLGSASGLGSALGSNSYSSCYSFGTGSGYGGNFGGVDGLLAGGEKATMQNLNDRLASYLDKVRALEEANTELEVKIRDWYQKQAPGPARDYSAYYHTIEDLKNKILVATVDNASILLQIDNARLAADDFRTKFETEQALRMSVEADINGLRRVLDELTLARADLEMQIENLKEELAYLKKNHEEEMNALRGQVGGEINVEMDAAPGVDLSRILSEMRDQYEKMAEKNRKDAEDWFFSKTEELNREVATNSELVQSGKSEISELRRTMQALEIELQSQLSMKASLEGSLAETENRYCVQLSQIQGLIGSVEEQLAQLRCEMEQQNQEYKILLDVKTRLEQEIATYRRLLEGEDAHLTQYKPKEPVTTRQVRTIVEEVQDGKVISSREQVHQTTR
modifications: full-length
  17 0H NS19: 1
  17 8H 5B1: 0.892
  17 8H NS19: 0.727
  20 0H 5B1: 0.848

B5: P62631 (protein, UniProt P62631 1-463, looked up)
chain: MGKEKTHINIVVIGHVDSGKSTTTGHLIYKCGGIDKRTIEKFEKEAAEMGKGSFKYAWVLDKLKAERERGITIDISLWKFETTKYYITIIDAPGHRDFIKNMITGTSQADCAVLIVAAGVGEFEAGISKNGQTREHALLAYTLGVKQLIVGVNKMDSTEPAYSEKRYDEIVKEVSAYIKKIGYNPATVPFVPISGWHGDNMLEPSPNMPWFKGWKVERKEGNASGVSLLEALDTILPPTRPTDKPLRLPLQDVYKIGGIGTVPVGRVETGILRPGMVVTFAPVNITTEVKSVEMHHEALSEALPGDNVGFNVKNVSVKDIRRGNVCGDSKADPPQEAAQFTSQVIILNHPGQISAGYSPVIDCHTAHIACKFAELKEKIDRRSGKKLEDNPKSLKSGDAAIVEMVPGKPMCVESFSQYPPLGRFAVRDMRQTVAVGVIKNVEKKSGGAGKVTKSAQKAQKAGK
modifications: full-length
  17 0H NS19: 1
  17 8H 5B1: 4.606
  17 8H NS19: 0.615
  20 0H 5B1: 4.076

B6: O35565 (protein, UniProt O35565 1-209, looked up)
chain: MWKWILTHCASAFPHLPGCCCCFLLLFLVSSFPVTCQALGQDMVSQEATNCSSSSSSFSSPSSAGRHVRSYNHLQGDVRWRRLFSFTKYFLTIEKNGKVSGTKNEDCPYSVLEITSVEIGVVAVKAINSNYYLAMNKKGKLYGSKEFNNDCKLKERIEENGYNTYASFNWQHNGRQMYVALNGKGAPRRGQKTRRKNTSAHFLPMTIQT
modifications: full-length
  17 0H NS19: 1
  17 8H 5B1: 6.439
  17 8H NS19: 0.678
  20 0H 5B1: 6.246

B7: P80314 (protein, UniProt P80314 1-535, looked up)
chain: MASLSLAPVNIFKAGADEERAETARLSSFIGAIAIGDLVKSTLGPKGMDKILLSSGRDAALMVTNDGATILKNIGVDNPAAKVLVDMSRVQDDEVGDGTTSVTVLAAELLREAESLIAKKIHPQTIISGWREATKAAREALLSSAVDHGSDEARFWQDLMNIAGTTLSSKLLTHHKDHFTKLAVEAVLRLKGSGNLEAIHVIKKLGGSLADSYLDEGFLLDKKIGVNQPKRIENAKILIANTGMDTDKIKIFGSRVRVDSTAKVAEIEHAEKEKMKEKVERILKHGINCFINRQLIYNYPEQLFGAAGVMAIEHADFAGVERLALVTGGEIASTFDHPELVKLGSCKLIEEVMIGEDKLIHFSGVALGEACTIVLRGATQQILDEAERSLHDALCVLAQTVKDPRTVYGGGCSEMLMAHAVTQLANRTPGKEAVAMESFAKALRMLPTIIADNAGYDSADLVAQLRAAHSEGHITAGLDMKEGTIGDMAVLGITESFQVKRQVLLSAAEAAEVILRVDNIIKAAPRKRVPDHHPC
modifications: full-length
  17 0H NS19: 1
  17 8H 5B1: 2.255
  17 8H NS19: 0.712
  20 0H 5B1: 1.964

B8: Q61838 (protein, UniProt Q61838 1-1495, looked up)
chain: MRRNQLPTPAFLLLFLLLPRDATTATAKPQYVVLVPSEVYSGVPEKACVSLNHVNETVMLSLTLEYAMQQTKLLTDQAVDKDSFYCSPFTISGSPLPYTFITVEIKGPTQRFIKKKSIQIIKAESPVFVQTDKPIYKPGQIVKFRVVSVDISFRPLNETFPVVYIETPKRNRIFQWQNIHLAGGLHQLSFPLSVEPALGIYKVVVQKDSGKKIEHSFEVKEYVLPKFEVIIKMQKTMAFLEEELPITACGVYTYGKPVPGLVTLRVCRKYSRYRSTCHNQNSMSICEEFSQQADDKGCFRQVVKTKVFQLRQKGHDMKIEVEAKIKEEGTGIELTGIGSCEIANALSKLKFTKVNTNYRPGLPFSGQVLLVDEKGKPIPNKNITSVVSPLGYLSIFTTDEHGLANISIDTSNFTAPFLRVVVTYKQNHVCYDNWWLDEFHTQADHSATLVFSPSQSYIQLELVFGTLACGQTQEIRIHYLLNEDIMKNEKDLTFYYLIKARGSIFNLGSHVLSLEQGNMKGVFSLPIQVEPGMAPEAQLLIYAILPNEELVADAQNFEIEKCFANKVNLSFPSAQSLPASDTHLKVKAAPLSLCALTAVDQSVLLLKPEAKLSPQSIYNLLPGKTVQGAFFGVPVYKDHENCISGEDITHNGIVYTPKHSLGDNDAHSIFQSVGINIFTNSKIHKPRFCQEFQHYPAMGGVAPQALAVAASGPGSSFRAMGVPMMGLDYSDEINQVVEVRETVRKYFPETWIWDLVPLDVSGDGELAVKVPDTITEWKASAFCLSGTTGLGLSSTISLQAFQPFFLELTLPYSVVRGEAFTLKATVLNYMSHCIQIRVDLEISPDFLAVPVGGHENSHCICGNERKTVSWAVTPKSLGEVNFTATAEALQSPELCGNKLTEVPALVHKDTVVKSVIVEPEGIEKEQTYNTLLCPQDTELQDNWSLELPPNVVEGSARATHSVLGDILGSAMQNLQNLLQMPYGCGEQNMVLFVPNIYVLNYLNETQQLTEAIKSKAINYLISGYQRQLNYQHSDGSYSTFGNHGGGNTPGNTWLTAFVLKAFAQAQSHIFIEKTHITNAFNWLSMKQKENGCFQQSGYLLNNAMKGGVDDEVTLSAYITIALLEMPLPVTHSAVRNALFCLETAWASISQSQESHVYTKALLAYAFALAGNKAKRSELLESLNKDAVKEEDSLHWQRPGDVQKVKALSFYQPRAPSAEVEMTAYVLLAYLTSESSRPTRDLSSSDLSTASKIVKWISKQQNSHGGFSSTQDTVVALQALSKYGAATFTRSQKEVLVTIESSGTFSKTFHVNSGNRLLLQEVRLPDLPGNYVTKGSGSGCVYLQTSLKYNILPVADGKAPFALQVNTLPLNFDKAGDHRTFQIRINVSYTGERPSSNMVIVDVKMVSGFIPMKPSVKKLQDQPNIQRTEVNTNHVLIYIEKLTNQTLGFSFAVEQDIPVKNLKPAPIKVYDYYETDEFTVEEYSAPFSDGSEQGNA
modifications: full-length
  17 0H NS19: 1
  17 8H 5B1: 0.354
  17 8H NS19: 1.026
  20 0H 5B1: 0.309

B9: P97466 (protein, UniProt P97466 1-232, looked up)
chain: MERCPSLGVTLYALVVVLGLRAAPAGGQHYLHIRPAPSDNLPLVDLIEHPDPIFDPKEKDLNETLLRSLLGGHYDPGFMATSPPEDRPGGGGGPAGGAEDLAELDQLLRQRPSGAMPSEIKGLEFSEGLAQGKKQRLSKKLRRKLQMWLWSQTFCPVLYAWNDLGSRFWPRYVKVGSCFSKRSCSVPEGMVCKPSKSVHLTVLRWRCQRRGGQRCGWIPIQYPIISECKCSC
modifications: full-length
  17 0H NS19: 1
  17 8H 5B1: 10.991
  17 8H NS19: 0.71
  20 0H 5B1: 9.104

— patent US12378320B2, “Methods for treating pancreatitis” (Cold Spring Harbor Laboratory, priority 2018, dated 2025)
